No constants are given. Whether binding was seen depends on the method and setting. Binding can be weak; no strength is given.

The experiment addresses T1, MecI, repressor of mecA, from S. aureus strain N315 (Staphylococcus aureus (strain N315)) (UniProt P68262).
T1 sequence: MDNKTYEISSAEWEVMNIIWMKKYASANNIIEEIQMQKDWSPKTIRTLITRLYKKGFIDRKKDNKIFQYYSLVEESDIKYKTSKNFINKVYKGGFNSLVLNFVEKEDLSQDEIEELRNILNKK
In words: two-hybrid; bacterial two-hybrid (restoration of CyaA from T25 and T18 fusions) in E. coli BTH101; lacZ reporter read by X-gal hydrolysis in liquid cultures; fusions at the N' or C' terminals in all combinations.

As to “MecR2, small variant of prototype strain N315 (SCCmec type II) (Staphylococcus aureus (strain N315))”, the binding result is “binds”.

Source of the values: PMC3406092.
